Test results published in patent publication US11072628B2, “Nucleoside analogues for the treatment of parasitic infections” (UNIVERSITEIT GENT, priority 2017, dated 2021).
Some entries share one result that the patent states for a list of compounds. For some assays here: At least one structure is not confirmed: it was looked up by name or label, or the drawing left a doubt.

How the values were obtained:
[1] = system: T. brucei Squib 427; assay: In vitro drug susceptibility, T. brucei Squib 427 (resazurin); type: cell-based, Trypanosoma brucei brucei; conditions: read-out: EC50 against T. brucei
Procedure: All trypanosome strains were cultured in the standard HMI-9 medium supplemented with 10% fetal bovine serum (FBS) at 37° C. in a 5% CO2 atmosphere.

[2] = system: T. b. brucei Squib 427; assay: In vivo antiparasitic activity in mice (T. brucei; acute model); design: species or system Trypanosoma brucei brucei; conditions: infected mice, 5 consecutive days; test compound 25 mg/kg PO b.i.d. (FH7429_D also 10 mg/kg s.i.d. IP); suramin 10 mg/kg; pre-set endpoint 21 dpi
Procedure: Female Swiss mice (BW 20-24 g; Janvier France) were allocated randomly to groups of 3 animals and infected intraperitoneally (IP) with 10^4 T. b. brucei Squib 427 derived from a heavily infected donor mouse. Drinking water and food were available ad libitum throughout the experiment. The test compound of the invention was formulated in 10% (V/V) PEG400 in water at 2 mg/mL and was freshly prepared at every administration. The test compound was administered orally (PO) b.i.d. for 5 days at 25 mg/kg. The reference drug suramin was formulated in PBS at 2.5 mg/mL and administered s.i.d. IP for 5 days at 10 mg/kg. Treatment was initiated ½ hour prior to the IP infection. […] Parasitemia analysis was performed by microscopic evaluation of tail vein blood samples at 4, 7, 10, 14 and 21 dpi (pre-set endpoint). As a test of cure, blood samples (250 μL) were collected from treated mice at 21 dpi and were sub-inoculated IP in naive Swiss mice followed by parasitemia follow-up.
Female Swiss mice (BW 20-24 g; Janvier France) were allocated randomly to groups of 3 animals and infected intraperitoneally (IP) with 104 T. b. brucei Squib 427 derived from a heavily infected donor mouse. Drinking water and food were available ad libitum throughout the experiment. The test compound of the invention was formulated in 10% (V/V) PEG400 in water at 2 mg/mL and was freshly prepared at every administration. […]

SMILES	EC50 [1]	survival until day [2]
Nc1ncnc2c1c(-c1ccc3ccccc3c1)cn2[C@@H]1O[C@H](CO)[C@@H](O)[C@H]1O [FH8461, 4-amino-5-(2-naftyl)-N7-(β-D-ribofuranosyl)-pyrrolo[2,3-d]pyrimidine]	< 10 µM	
Cc1ccc(C(=O)Nc2ccc(S(=O)(=O)O)c3cc(S(=O)(=O)O)cc(S(=O)(=O)O)c23)cc1NC(=O)c1cccc(NC(=O)Nc2cccc(C(=O)Nc3cc(C(=O)Nc4ccc(S(=O)(=O)O)c5cc(S(=O)(=O)O)cc(S(=O)(=O)O)c45)ccc3C)c2)c1 [Suramin, reference compound]		≥ 21 days
